Literature values in article PMC11313180 (International Journal of Molecular Sciences, 2024).

Tested on: squamous carcinoma cell line Cal27
Details: read-out: IC50 cellular HDAC assay in Cal27, ref [29]; cited from earlier work

In the case of O=C(CCCCCCC(=O)Nc1ccccc1)NO [vorinostat], the IC50 is listed as 880 nM.
